# Test results taken from patent US9878054B2 (Tufts Medical Center, Inc., priority 2012, dated 2018).
# Assay: general procedure: Fmoc solid-phase peptide synthesis
# Details: whole synthesis, reverse-phase HPLC; MALDI mass spectrometry, TFA salt (crude), exchanged with ammonium acetate
substance,measurement,value
palmitate-KKSRALF-NH2,final HPLC purity,99.1%
